PubChem BioAssay AID238 (DTP/NCI, 2004)
The list shows only some results of the screen, not a fair sample: it gathers some chemical classes. Other doses and runs of a compound may be missing. T/C: endpoint of the treated group in % of that of the vehicle group. Where survival is the endpoint, this PubChem deposit counts one and a half times the control or more as active, and values a quarter to a half above the control carry no call in these data; other NCI protocols may use other cut-offs. Some T/C values are marked as having no survivor count here; that says nothing about deaths at the dose. Schedule codes are those of the source, read here as Q, the interval in days (D) or hours (H), X, the number of doses. Some doses were run more than once; their values stand side by side, smallest first.

System: CAF1 mice, leiomyosarcoma No.2 ip, survival T/C%
Test: NCI In Vivo Anticancer Drug Screen. Data for tumor model Leiomyosarcoma (No. 2) (intraperitoneal) in CAF1 mice
Conditions: T/C endpoint: mean survival time, schedule: Q01DX010 (ip), vehicle: saline, higher T/C = longer survival
Protocol: The antitumor activity of compounds was measured in mice bearing transplantable tumors. Survival or tumor size were measured and the results are expressed as the measurement made in the treated group (T) divided by the measurement made in the vehicle treated control group (C). The tumor model used in this assay is Leiomyosarcoma (No. 2) (intraperitoneal) in CAF1 mice

CN(CCCl)CCCl
T/C (dose: 0.13 mg/kg/injection): 111 [survivor count not shown] and 146 % of control [survivor count not shown]
T/C (dose: 0.25 mg/kg/injection): 86 [survivor count not shown] and 253 % of control [survivor count not shown]
T/C (dose: 0.5 mg/kg/injection): 96 % of control [survivor count not shown]
